The source of these data is publication PMC3690454, “14-3-3 Proteins Interact with a Hybrid Prenyl-Phosphorylation Motif to Inhibit G Proteins” (Cell, 2013).

Chains of the proteins cited; added tags and fusions are not shown. Lines headed by an entry give the natural chain unless they say otherwise; changes in a name come on top. Residues count along the entry.
UniProt Q13017, residues 382-1007: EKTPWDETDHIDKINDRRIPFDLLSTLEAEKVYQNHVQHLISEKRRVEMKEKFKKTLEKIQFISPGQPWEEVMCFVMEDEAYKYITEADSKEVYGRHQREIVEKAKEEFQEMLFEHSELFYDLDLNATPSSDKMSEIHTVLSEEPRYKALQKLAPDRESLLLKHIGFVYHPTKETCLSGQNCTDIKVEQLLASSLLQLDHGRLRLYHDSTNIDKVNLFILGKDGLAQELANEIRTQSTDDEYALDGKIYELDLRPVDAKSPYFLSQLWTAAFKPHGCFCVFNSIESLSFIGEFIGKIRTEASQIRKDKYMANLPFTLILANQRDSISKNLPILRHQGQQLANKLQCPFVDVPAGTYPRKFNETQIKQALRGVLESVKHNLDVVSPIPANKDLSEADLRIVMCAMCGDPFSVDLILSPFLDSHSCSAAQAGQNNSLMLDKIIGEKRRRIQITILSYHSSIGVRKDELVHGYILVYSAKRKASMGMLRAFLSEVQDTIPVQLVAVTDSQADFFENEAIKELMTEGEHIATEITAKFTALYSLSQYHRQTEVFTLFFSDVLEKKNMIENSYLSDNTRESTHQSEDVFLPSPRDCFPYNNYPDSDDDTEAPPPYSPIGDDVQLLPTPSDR
UniProt P31946: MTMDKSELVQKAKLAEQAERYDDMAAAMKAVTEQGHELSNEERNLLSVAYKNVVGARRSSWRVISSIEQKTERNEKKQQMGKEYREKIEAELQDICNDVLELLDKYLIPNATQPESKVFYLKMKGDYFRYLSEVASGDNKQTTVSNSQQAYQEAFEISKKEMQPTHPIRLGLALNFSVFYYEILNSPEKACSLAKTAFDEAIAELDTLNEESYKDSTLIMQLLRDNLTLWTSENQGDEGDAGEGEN
UniProt P63104: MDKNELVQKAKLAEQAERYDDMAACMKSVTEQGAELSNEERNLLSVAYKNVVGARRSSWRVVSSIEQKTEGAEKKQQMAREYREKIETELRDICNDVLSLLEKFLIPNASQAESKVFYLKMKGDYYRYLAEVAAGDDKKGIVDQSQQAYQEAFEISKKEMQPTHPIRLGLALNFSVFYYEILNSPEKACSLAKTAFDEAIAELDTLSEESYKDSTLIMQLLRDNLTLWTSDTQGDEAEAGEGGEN

In one test the target is Myc-Δp190B (UniProt Q13017). Kind of test: co-IP; COS7 transfected with FLAG-Rnd3 constructs and Myc-Δp190B, with or without HA-14-3-3β, ROCK1 1-420 or calyculin A; IP with anti-FLAG, anti-Myc or anti-HA.
Another test has as its target HA-14-3-3β (UniProt P31946). Described as above.
Test [1] deals with T1, biotinylated Rap1A C-terminal peptide, phosphorylated, not geranylgeranylated.
T1 sequence (peptide, biotin-aminohexanoic acid (N-Bio-Eahx) on the N-terminus; phosphoserine at 180): EKKKPKKKSC
Kind of test: BLI; Octet RED96; biotinylated peptides immobilised on streptavidin biosensors; dilution series of 14-3-3ζ; 25 mM Tris, 150 mM NaCl, 0.1% Tween-20; KD of +P-F by steady-state analysis; both purified. For orientation: In BLI a coated tip is dipped into the sample, and binding shifts an interference pattern.

Another test deals with GST-14-3-3β (UniProt P31946). Put plainly: pull-down; the same competition experiment as a8, read for the peptide and GST-14-3-3β: peptides (10 μg/ml) preincubated 15 min at 4°C with GST-14-3-3β; both purified.

These are yes or no findings as the source states them, for the method shown. For some of these results: Binding seen in cells or lysates may run through a third protein. Some results given as binding are weak or reduced against the parent protein; the word gives no strength.

In the case of HA-14-3-3β (from UniProt P31946 1-246), the binding result with Myc-Δp190B is “no binding”.

Consider “Myc-Δp190B (from UniProt Q13017 382-1007) (domain or fragment)”, for which, in the test with HA-14-3-3β, the binding entry was “no binding”.

“hexa-His-tagged 14-3-3ζ (from UniProt P63104 1-245)”: the binding result in test [1] is “binds weakly”.

B1: biotinylated Rnd3 C-terminal peptide, phosphorylated on S240 (+P−F) (peptide)
peptide: DLRKDKAKSC
modifications: biotin-aminohexanoic acid (N-Bio-Eahx) on the N-terminus; phosphoserine at 240
Consider B1, for which the binding result with GST-14-3-3β is “binds weakly”.
